# In doi:10.1101/2024.07.16.603680:
# Protein sequences, listed by entry. Tags and fused reporters are not part of them.
# UniProt Q99700: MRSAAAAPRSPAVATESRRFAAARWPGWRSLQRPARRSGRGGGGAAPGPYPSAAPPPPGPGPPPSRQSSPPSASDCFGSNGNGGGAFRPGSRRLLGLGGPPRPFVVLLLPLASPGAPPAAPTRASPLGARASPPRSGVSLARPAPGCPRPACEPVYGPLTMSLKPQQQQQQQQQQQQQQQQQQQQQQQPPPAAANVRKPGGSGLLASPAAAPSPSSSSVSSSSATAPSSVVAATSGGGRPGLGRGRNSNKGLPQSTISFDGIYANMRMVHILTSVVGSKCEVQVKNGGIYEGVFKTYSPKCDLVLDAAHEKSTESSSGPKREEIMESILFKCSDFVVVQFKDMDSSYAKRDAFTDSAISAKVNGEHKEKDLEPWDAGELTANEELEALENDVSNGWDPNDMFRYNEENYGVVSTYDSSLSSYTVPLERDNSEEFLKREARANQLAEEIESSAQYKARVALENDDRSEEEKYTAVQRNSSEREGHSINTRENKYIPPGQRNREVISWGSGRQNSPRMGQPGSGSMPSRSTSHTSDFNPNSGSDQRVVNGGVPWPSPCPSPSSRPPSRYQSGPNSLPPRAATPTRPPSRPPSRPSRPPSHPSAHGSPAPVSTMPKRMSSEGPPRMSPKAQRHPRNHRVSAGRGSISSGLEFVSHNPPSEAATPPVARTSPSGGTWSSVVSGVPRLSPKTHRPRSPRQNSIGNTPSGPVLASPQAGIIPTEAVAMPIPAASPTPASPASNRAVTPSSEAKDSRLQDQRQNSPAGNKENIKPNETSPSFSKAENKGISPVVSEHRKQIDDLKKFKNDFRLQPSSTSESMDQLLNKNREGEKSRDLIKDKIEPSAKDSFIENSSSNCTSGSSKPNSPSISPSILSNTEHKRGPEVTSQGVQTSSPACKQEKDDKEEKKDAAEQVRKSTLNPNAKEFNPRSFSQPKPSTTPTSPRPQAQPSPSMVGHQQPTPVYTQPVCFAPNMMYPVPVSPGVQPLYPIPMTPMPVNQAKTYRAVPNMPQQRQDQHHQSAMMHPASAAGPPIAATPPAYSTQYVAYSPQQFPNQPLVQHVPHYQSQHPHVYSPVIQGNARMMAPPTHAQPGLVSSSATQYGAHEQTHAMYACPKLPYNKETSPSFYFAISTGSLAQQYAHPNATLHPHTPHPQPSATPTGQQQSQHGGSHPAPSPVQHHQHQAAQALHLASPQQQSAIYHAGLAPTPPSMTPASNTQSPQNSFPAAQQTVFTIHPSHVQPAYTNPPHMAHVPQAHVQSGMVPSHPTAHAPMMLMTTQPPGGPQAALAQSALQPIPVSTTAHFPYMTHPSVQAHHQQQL
# UniProt Q9Y597: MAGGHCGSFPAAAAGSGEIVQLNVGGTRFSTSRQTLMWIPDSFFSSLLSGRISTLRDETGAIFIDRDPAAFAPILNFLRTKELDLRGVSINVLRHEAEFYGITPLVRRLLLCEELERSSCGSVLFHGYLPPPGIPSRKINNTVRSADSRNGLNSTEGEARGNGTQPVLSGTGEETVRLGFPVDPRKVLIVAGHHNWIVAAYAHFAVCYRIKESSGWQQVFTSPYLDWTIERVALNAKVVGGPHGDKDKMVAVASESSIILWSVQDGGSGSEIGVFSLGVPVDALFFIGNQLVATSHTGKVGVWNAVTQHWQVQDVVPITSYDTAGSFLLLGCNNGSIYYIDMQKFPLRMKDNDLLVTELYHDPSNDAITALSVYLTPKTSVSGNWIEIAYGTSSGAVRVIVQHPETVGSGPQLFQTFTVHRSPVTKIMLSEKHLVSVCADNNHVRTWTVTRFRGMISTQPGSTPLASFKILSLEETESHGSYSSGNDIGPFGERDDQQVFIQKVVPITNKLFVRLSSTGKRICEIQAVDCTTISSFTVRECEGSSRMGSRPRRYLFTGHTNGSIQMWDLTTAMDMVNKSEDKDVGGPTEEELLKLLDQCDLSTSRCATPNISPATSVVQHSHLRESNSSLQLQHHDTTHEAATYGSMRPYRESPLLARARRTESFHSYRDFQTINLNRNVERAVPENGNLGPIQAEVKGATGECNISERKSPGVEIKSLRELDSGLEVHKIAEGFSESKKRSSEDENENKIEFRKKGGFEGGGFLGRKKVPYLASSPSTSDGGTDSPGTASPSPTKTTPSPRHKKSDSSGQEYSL
# UniProt Q14247: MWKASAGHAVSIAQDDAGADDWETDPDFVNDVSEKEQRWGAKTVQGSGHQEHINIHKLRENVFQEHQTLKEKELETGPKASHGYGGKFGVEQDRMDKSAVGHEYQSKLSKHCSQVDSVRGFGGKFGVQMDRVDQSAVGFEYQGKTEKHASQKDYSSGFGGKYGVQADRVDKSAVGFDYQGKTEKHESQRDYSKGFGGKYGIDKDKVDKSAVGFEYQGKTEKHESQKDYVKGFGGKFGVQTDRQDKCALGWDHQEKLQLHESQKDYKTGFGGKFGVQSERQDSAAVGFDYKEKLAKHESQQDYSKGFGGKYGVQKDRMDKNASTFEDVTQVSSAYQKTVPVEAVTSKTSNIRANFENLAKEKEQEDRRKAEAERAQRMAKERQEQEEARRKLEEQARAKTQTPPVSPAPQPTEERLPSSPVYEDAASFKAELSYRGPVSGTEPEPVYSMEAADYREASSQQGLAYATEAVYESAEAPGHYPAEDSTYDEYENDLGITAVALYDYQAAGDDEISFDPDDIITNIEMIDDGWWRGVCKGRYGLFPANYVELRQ
# UniProt Q07065: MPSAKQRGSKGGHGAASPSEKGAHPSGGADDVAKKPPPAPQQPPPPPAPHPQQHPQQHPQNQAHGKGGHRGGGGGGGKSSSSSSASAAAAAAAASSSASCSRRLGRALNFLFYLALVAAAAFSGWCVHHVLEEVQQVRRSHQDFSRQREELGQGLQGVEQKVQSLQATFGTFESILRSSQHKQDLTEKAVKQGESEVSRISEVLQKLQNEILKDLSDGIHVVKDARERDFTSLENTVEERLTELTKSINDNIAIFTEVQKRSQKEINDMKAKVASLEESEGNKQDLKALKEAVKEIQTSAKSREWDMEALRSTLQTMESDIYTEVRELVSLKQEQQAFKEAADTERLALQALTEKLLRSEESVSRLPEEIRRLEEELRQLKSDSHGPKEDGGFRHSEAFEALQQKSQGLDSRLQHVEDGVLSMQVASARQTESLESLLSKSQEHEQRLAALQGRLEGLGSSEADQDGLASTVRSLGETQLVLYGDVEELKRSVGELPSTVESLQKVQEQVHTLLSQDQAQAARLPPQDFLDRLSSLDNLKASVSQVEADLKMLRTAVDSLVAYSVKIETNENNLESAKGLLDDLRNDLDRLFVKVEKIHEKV
# UniProt Q9UQ35: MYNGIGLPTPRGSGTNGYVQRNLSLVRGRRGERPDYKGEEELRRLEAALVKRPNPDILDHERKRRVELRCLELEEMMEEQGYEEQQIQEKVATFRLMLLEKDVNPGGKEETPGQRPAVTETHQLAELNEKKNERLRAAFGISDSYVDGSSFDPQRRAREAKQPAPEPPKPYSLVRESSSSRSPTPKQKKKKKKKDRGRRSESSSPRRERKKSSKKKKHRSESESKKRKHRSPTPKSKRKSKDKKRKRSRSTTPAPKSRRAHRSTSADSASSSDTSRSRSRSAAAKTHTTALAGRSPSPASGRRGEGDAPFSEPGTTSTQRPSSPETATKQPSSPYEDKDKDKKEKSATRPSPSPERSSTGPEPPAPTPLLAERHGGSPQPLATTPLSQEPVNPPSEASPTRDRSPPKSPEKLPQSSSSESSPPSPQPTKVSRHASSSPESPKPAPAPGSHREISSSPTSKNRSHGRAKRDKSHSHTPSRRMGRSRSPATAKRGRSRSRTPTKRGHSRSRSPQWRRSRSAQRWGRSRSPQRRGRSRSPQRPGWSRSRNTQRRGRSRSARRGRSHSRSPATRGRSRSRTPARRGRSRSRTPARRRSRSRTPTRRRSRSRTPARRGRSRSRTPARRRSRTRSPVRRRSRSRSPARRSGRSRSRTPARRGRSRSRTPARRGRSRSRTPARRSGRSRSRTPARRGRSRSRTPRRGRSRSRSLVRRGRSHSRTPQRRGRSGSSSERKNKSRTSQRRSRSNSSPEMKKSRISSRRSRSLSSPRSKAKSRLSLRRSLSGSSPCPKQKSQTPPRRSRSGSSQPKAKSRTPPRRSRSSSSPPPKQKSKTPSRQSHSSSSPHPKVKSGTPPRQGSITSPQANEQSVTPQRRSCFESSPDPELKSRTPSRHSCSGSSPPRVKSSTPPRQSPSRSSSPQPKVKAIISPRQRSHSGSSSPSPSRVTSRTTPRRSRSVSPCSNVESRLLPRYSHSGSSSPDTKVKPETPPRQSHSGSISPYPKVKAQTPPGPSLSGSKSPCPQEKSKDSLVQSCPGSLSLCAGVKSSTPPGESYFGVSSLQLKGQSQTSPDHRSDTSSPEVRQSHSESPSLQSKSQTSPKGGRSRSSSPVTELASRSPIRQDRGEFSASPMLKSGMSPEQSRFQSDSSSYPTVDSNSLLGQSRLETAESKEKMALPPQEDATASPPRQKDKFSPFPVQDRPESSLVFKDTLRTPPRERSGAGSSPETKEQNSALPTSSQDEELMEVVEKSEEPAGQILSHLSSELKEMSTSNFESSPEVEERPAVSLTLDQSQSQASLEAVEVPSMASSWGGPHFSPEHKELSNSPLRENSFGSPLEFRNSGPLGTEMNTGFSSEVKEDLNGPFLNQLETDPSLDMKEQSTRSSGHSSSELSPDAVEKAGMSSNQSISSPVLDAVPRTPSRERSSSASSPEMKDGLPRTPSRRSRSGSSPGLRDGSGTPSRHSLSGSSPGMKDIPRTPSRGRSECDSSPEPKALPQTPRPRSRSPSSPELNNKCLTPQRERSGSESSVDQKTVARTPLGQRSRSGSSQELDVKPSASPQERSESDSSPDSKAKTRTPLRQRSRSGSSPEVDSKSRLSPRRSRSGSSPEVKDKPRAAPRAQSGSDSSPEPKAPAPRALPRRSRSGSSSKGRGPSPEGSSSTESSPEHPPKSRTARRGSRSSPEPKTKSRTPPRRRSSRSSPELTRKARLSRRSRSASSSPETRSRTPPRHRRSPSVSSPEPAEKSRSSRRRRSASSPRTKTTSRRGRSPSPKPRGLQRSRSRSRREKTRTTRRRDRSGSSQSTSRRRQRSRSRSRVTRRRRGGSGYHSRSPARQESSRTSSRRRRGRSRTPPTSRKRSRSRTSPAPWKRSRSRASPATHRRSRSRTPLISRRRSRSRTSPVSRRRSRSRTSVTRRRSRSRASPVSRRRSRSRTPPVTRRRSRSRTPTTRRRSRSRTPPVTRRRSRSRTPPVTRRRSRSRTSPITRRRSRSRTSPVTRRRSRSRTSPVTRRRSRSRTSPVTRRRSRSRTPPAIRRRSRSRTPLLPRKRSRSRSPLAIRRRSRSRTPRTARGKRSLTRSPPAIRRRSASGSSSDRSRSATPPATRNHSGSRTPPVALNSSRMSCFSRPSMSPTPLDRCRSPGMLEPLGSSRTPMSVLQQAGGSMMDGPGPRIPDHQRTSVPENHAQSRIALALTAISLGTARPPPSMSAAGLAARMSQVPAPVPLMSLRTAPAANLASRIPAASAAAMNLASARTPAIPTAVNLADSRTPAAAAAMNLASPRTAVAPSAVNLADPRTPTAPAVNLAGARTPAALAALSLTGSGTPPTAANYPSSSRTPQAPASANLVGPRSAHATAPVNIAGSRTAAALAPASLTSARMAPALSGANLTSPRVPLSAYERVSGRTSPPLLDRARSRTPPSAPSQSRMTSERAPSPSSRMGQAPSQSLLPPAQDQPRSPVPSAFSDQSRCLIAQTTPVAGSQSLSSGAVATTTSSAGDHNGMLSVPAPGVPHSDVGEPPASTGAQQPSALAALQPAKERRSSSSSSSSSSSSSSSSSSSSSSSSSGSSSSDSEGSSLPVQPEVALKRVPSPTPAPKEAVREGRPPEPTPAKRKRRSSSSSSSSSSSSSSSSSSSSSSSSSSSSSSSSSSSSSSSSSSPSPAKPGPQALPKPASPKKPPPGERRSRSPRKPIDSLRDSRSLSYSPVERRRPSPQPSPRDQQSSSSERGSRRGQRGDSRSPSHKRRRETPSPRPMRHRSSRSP
# These are yes or no findings as the source states them, for the method shown. In cells and extracts the contact can be indirect. A yes stands for co-enrichment or nearness to the bait. Other partners may have been found.
# T1: CCCTC-binding insulator (CTCF) (human (endogenous in IMR90)) (UniProt P49711)
# T1 sequence: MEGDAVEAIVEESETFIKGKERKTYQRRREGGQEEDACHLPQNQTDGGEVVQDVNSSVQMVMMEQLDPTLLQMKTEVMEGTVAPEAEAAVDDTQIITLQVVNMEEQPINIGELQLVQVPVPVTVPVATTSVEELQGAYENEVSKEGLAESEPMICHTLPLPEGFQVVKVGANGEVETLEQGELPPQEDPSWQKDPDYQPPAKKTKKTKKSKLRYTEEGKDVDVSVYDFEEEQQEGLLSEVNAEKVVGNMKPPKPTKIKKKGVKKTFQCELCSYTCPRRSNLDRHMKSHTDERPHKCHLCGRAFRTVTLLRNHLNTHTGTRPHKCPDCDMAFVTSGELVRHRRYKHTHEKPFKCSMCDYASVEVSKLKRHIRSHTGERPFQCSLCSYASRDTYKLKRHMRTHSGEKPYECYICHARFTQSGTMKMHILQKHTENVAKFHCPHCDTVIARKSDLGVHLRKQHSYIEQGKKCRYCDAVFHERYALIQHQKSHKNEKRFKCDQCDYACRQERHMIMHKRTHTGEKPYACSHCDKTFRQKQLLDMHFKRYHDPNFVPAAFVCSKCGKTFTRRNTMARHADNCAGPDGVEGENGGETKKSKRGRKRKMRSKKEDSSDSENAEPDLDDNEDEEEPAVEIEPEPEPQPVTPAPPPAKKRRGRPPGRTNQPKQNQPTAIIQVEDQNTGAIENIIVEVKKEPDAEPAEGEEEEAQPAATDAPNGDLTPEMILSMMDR
# T2: High mobility group-box 2 (HMGB2) (human (endogenous in IMR90)) (UniProt P26583)
# T2 sequence: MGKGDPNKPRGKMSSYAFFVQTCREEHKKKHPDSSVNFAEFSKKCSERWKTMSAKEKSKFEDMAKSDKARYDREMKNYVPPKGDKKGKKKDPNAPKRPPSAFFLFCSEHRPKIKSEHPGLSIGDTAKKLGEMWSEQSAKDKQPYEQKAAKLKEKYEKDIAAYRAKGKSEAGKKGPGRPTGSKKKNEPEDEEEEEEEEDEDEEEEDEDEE
# Target: T1, CCCTC-binding insulator (CTCF) (human (endogenous in IMR90))
# Assay: affinity purification with mass spectrometry
row,binding,Molecule
1,binds,ATXN2 (from UniProt Q99700 1-1313)
2,binds,KCTD3 (from UniProt Q9Y597 1-815)
3,binds,CTTN (from UniProt Q14247 1-550)
4,binds,CKAP4 (from UniProt Q07065 1-602)
5,binds,SRRM2 (from UniProt Q9UQ35 1-2752)
6,binds,MAP1A (from UniProt P78559 1-2803)
7,binds,SQSTM1 (from UniProt Q13501 1-440)
8,binds,"CLCC1 (protein, UniProt Q96S66 19-551) HDDDWIDPTDMLNYDAASGTMRKSQAKYGISGEKDVSPDLSCADEISECYHKLDSLTYKIDECEKKKREDYESQSNPVFRRYLNKILIEAGKLGLPDENKGDMHYDAEIILKRETLLEIQKFLNGEDWKPGALDDALSDILINFKFHDFETWKWRFEDSFGVDPYNVLMVLLCLLCIVVLVATELWTYVRWYTQLRRVLIISFLFSLGWNWMYLYKLAFAQHQAEVAKMEPLNNVCAKKMDWTGSIWEWFRSSWTYKDDPCQKYYELLLVNPIWLVPPTKALAVTFTTFVTEPLKHIGKGTGEFIKALMKEIPALLHLPVLIIMALAILSFCYGAGKSVHVLRHIGGPESEPPQALRPRDRRRQEEIDYRPDGGAGDADFHYRGQMGPTEQGPYAKTYEGRREILRERDVDLRFQTGNKSPEVLRAFDVPDAEAREHPTVVPSHKSPVLDTKPKETGGILGEGTPKESSTESSQSAKPVSGQDTSGNTEGSPAAEKAQLKSEAAGSPDQGSTYSPARGVAGPRGQDPVSSPCG"
9,binds,"BANF1 (protein, UniProt O75531 1-89) MTTSQKHRDFVAEPMGEKPVGSLAGIGEVLGKKLEERGFDKAYVVLGQFLVLKKDEDLFREWLKDTCGANAKQSRDCFGCLREWCDAFL"
10,binds,"A2M (protein, UniProt P01023 24-1474) SVSGKPQYMVLVPSLLHTETTEKGCVLLSYLNETVTVSASLESVRGNRSLFTDLEAENDVLHCVAFAVPKSSSNEEVMFLTVQVKGPTQEFKKRTTVMVKNEDSLVFVQTDKSIYKPGQTVKFRVVSMDENFHPLNELIPLVYIQDPKGNRIAQWQSFQLEGGLKQFSFPLSSEPFQGSYKVVVQKKSGGRTEHPFTVEEFVLPKFEVQVTVPKIITILEEEMNVSVCGLYTYGKPVPGHVTVSICRKYSDASDCHGEDSQAFCEKFSGQLNSHGCFYQQVKTKVFQLKRKEYEMKLHTEAQIQEEGTVVELTGRQSSEITRTITKLSFVKVDSHFRQGIPFFGQVRLVDGKGVPIPNKVIFIRGNEANYYSNATTDEHGLVQFSINTTNVMGTSLTVRVNYKDRSPCYGYQWVSEEHEEAHHTAYLVFSPSKSFVHLEPMSHELPCGHTQTVQAHYILNGGTLLGLKKLSFYYLIMAKGGIVRTGTHGLLVKQEDMKGHFSISIPVKSDIAPVARLLIYAVLPTGDVIGDSAKYDVENCLANKVDLSFSPSQSLPASHAHLRVTAAPQSVCALRAVDQSVLLMKPDAELSASSVYNLLPEKDLTGFPGPLNDQDNEDCINRHNVYINGITYTPVSSTNEKDMYSFLEDMGLKAFTNSKIRKPKMCPQLQQYEMHGPEGLRVGFYESDVMGRGHARLVHVEEPHTETVRKYFPETWIWDLVVVNSAGVAEVGVTVPDTITEWKAGAFCLSEDAGLGISSTASLRAFQPFFVELTMPYSVIRGEAFTLKATVLNYLPKCIRVSVQLEASPAFLAVPVEKEQAPHCICANGRQTVSWAVTPKSLGNVNFTVSAEALESQELCGTEVPSVPEHGRKDTVIKPLLVEPEGLEKETTFNSLLCPSGGEVSEELSLKLPPNVVEESARASVSVLGDILGSAMQNTQNLLQMPYGCGEQNMVLFAPNIYVLDYLNETQQLTPEIKSKAIGYLNTGYQRQLNYKHYDGSYSTFGERYGRNQGNTWLTAFVLKTFAQARAYIFIDEAHITQALIWLSQRQKDNGCFRSSGSLLNNAIKGGVEDEVTLSAYITIALLEIPLTVTHPVVRNALFCLESAWKTAQEGDHGSHVYTKALLAYAFALAGNQDKRKEVLKSLNEEAVKKDNSVHWERPQKPKAPVGHFYEPQAPSAEVEMTSYVLLAYLTAQPAPTSEDLTSATNIVKWITKQQNAQGGFSSTQDTVVALHALSKYGAATFTRTGKAAQVTIQSSGTFSSKFQVDNNNRLLLQQVSLPELPGEYSMKVTGEGCVYLQTSLKYNILPEKEEFPFALGVQTLPQTCDEPKAHTSFQISLSVSYTGSRSASNMAIVDVKMVSGFIPLKPTVKMLERSNHVSRTEVSSNHVLIYLDKVSNQTLSLFFTVLQDVPVRDLKPAIVKVYDYYETDEFAIAEYNAPCSKDLGNA"

# Target: T2, High mobility group-box 2 (HMGB2) (human (endogenous in IMR90))
# Assay: affinity purification with mass spectrometry
row,binding,Molecule
1,binds,SRRM2 (from UniProt Q9UQ35 1-2752)
